Experiment [1] has as its target T1, Cdh1-ΔN200 (S. cerevisiae) (UniProt P53197).
T1 sequence: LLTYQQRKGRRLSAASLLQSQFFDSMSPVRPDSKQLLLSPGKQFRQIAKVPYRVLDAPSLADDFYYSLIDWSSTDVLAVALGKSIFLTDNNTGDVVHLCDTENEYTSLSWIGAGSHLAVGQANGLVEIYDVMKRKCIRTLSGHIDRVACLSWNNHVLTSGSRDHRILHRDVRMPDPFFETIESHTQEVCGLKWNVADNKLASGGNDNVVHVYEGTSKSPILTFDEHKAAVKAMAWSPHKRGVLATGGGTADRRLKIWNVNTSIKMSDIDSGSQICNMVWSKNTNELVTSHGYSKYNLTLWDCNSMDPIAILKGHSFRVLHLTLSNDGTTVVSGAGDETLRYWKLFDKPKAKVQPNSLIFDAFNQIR
The experiment in a line: two-hybrid; pJ69-4a strains with bait plasmids mated with pJ69-4α strains with activation domain plasmids; diploids struck onto plates lacking leucine, tryptophan, histidine and adenine; growth indicates interaction.

The target in experiment [2] is T1, Cdh1-ΔN200 (S. cerevisiae). Briefly: two-hybrid; data not shown; D-box mutants of Ybr138C with Cdh1.

For 14 molecules, binding results are on record in publication PMC3458821.

Residue numbers refer to the chain shown, from its start. Results are given in words; binding and its absence hold for the method and conditions named. Some entries that bind do so weakly or less than the wild type.

B1: Tos4-ΔC125 (domain or fragment, UniProt Q06266 1-364)
chain: MSSQFPSSPYRTVDPYSPPNYKQQPNCPSSNYEKAGKTASESIGNFGKGDYPTPFPSSSIGRVSSPVRSNKVDAIPSSPAFPGQLAETSPKFSSKLSSPSRHTRVINAELDPSKISTITVGRNSSQCDVALCKNKFISRVHASITYLPQTNEVKIHCFSMNGLIVTYRKQFDCYQLKDTMNNNNRAYRLVPRFSNEKCVKEIQDEGGFINFTLEEGDTVYMTYYKGIMLDFRQVLLRISLKEKNSSSEPLRFEKKAEFESESETKHMGSIRKHPLIFTDTSMDRPKKILKDSNKISIGSDSGVAERMLNHFLNSKSSPLSSVSSVDHEEQTLRQDSLSSDKNPMTMKKPKLNKRVLPSKPKKSV
For the molecule B1, the binding entry in experiment [1] is reported as “no binding”.

B2: Ybr138C with the putative D-box 462RLQL mutated (protein, UniProt P38277 1-524)
chain: MEKDQIQPRVLESVDTNSLSLLSSNTSSNMNSNTNNKLSIIASDISTGSVLSRPLTPPVVQDIENNSMLQWQFEKKEFIFDSNSTPSKQAKPLQRNSPYQGNSQSENQNQQLLNVRKRRSQLIGAKPKIPSKLYQSVSKLDLIDDKSFTSLPIAPPCNIETNEDDSGNNEYNNNKKRPRLNPVNELRVHNNKRNRYVSYGPSLDTKNYELTENTSQDIPPLVLVEDYIPYTQSKSTKKMVSISDLKSKLSKRRDNHIPLRVKNSYSEINKETNRNSFEPNSLTLIPHILRNTEENRDESNNPLDFIKEEIEISDISIPNSIENMVVNLVNIPSSNKSYDDLYLSELNVHSQLRKCVICEKALYEISSRLLNSGYYKEIVCEQCTVRYEEAAKIFENCEFESSMDESNLSSGTFSDLENSAEPFHLSTDVPKKINRHIEDNKIDLKKEISKKKDSFSKELIEALQAQLLENDKSIKHHFNKDAMGSKSMNWFLEARRKLKWKWRINGLLPHFLRNQNSDRLNFQP
Take B2: the binding entry in experiment [2] is “binds”.

B3: Ybr138C with the putative D-box 495RRKL mutated (protein, UniProt P38277 1-524)
chain: B2 chain with A462R, A465L, R495A, L498A
With B3, in experiment [2], the binding result was “binds”.

B4: Ybr138C (two-hybrid prey) (protein, UniProt P38277 1-524)
chain: B2 chain with A462R, A465L
On to B4, for which, in experiment [1], the binding result was “binds”.

B5: Tos4-C222 (domain or fragment, UniProt Q06266 268-489)
chain: GSIRKHPLIFTDTSMDRPKKILKDSNKISIGSDSGVAERMLNHFLNSKSSPLSSVSSVDHEEQTLRQDSLSSDKNPMTMKKPKLNKRVLPSKPKKSVKENLDELSRRNIDVMHLQHILTNHLAFANVQQTPLFQLQQVNSQISELSRDELRSILSDAKCVGVIYRHGKDAAGKPLDEEYFYDLENDDDYERRNLVSSLKGGRTGLRSCRRTHKQYFWKKPAK
With B5, the binding entry in experiment [1] is “binds”.

B6: Ybr138C-ΔN200 (domain or fragment, UniProt P38277 201-524)
chain: PSLDTKNYELTENTSQDIPPLVLVEDYIPYTQSKSTKKMVSISDLKSKLSKRRDNHIPLRVKNSYSEINKETNRNSFEPNSLTLIPHILRNTEENRDESNNPLDFIKEEIEISDISIPNSIENMVVNLVNIPSSNKSYDDLYLSELNVHSQLRKCVICEKALYEISSRLLNSGYYKEIVCEQCTVRYEEAAKIFENCEFESSMDESNLSSGTFSDLENSAEPFHLSTDVPKKINRHIEDNKIDLKKEISKKKDSFSKELIERLQLQLLENDKSIKHHFNKDAMGSKSMNWFLEARRKLKWKWRINGLLPHFLRNQNSDRLNFQP
For B6, the binding result in experiment [1] was “binds”.

B7: Fir1 (two-hybrid prey) (protein, UniProt P40020 1-876)
chain: MSLPVTPVKSKVCSTLSIQHEMDHDQCRDVLCPRENLLAINRTNNIESVAIPRQRSSKNKKPHEHTQSQVRFSIPDPNEISQDSPLKIVFPKSGNETERRMSTSSLLMNSHGHLVDMHSKILVDVPKEVWKFHHNRRKKCESRHRKTRSDVRSNTSSSGKEPNHSRSKSLQSIIVDTMNTYRATEVETSINENTSNISQVSPLNLSFDRPPPLTPEKNLYLTPESPLNRYHLPVPLEISLPPYLSPQNKDKKRSSLVYDGDGYSQFQEGNTSSSTESSLEQPSSSYSDEDDSIPYAHHDVSFELNNADADKLLGIDENANVNLKIQRRNLKNPQHIKSKTDRECEEKNTEKNVSLKILSTPNKLIDIPDLEHMKSPPSTGLNGTLKFFQQFEPSEEPTSPTRQVNPESLDKLDMSFKFPSSTTNNNVDKVHENRNSGDTNNEDFLKVDTSPVNQSFESRRQMLIDLQKSPTNNNPRIHKHRRSRSVHNIDDISLNFEATSTPPAPTSAPSIPVEHSNPCTSIEIPKRSPLRFTSSPKTSDIPPEAQSPKNGSFLQEISVPSIQIIPDESISHTREPSPSLIECPEDENEAFSTEVADHSIAIISETKSVPSIEPFKPLSSFNSFGQEIQNKEPTPLNQTPTDLIGKQRNCVNPHSIPFSVLSSNSQSSQSGSSKSSYNSEFSSNTAITDTTSQPSVTINRSTLEHNFIEEKRSIKNLGHGPPSQKNNYSFPRNKNTPSNRHDLDFNTIYEKRDGKMVEVILLDEDEDVGLKNNDISRTRVCHAQKAKNEQQKKRLSHCNEILGMCDKTADDAKRIIYQLVNEKHKFSEKGQQTKPKKSRVLPPLPFPLYDEKGNSLIPNKYQSSIHNDIPSHRKLK
Take B7: in experiment [1], the binding entry was “binds”.

B8: Tos4 (two-hybrid prey, entire open reading frame) (protein, UniProt Q06266 1-489)
chain: MSSQFPSSPYRTVDPYSPPNYKQQPNCPSSNYEKAGKTASESIGNFGKGDYPTPFPSSSIGRVSSPVRSNKVDAIPSSPAFPGQLAETSPKFSSKLSSPSRHTRVINAELDPSKISTITVGRNSSQCDVALCKNKFISRVHASITYLPQTNEVKIHCFSMNGLIVTYRKQFDCYQLKDTMNNNNRAYRLVPRFSNEKCVKEIQDEGGFINFTLEEGDTVYMTYYKGIMLDFRQVLLRISLKEKNSSSEPLRFEKKAEFESESETKHMGSIRKHPLIFTDTSMDRPKKILKDSNKISIGSDSGVAERMLNHFLNSKSSPLSSVSSVDHEEQTLRQDSLSSDKNPMTMKKPKLNKRVLPSKPKKSVKENLDELSRRNIDVMHLQHILTNHLAFANVQQTPLFQLQQVNSQISELSRDELRSILSDAKCVGVIYRHGKDAAGKPLDEEYFYDLENDDDYERRNLVSSLKGGRTGLRSCRRTHKQYFWKKPAK
Regarding B8, the binding entry in experiment [1] is recorded as “binds”.

B9: Ybr138C-N270 (domain or fragment, UniProt P38277 1-270)
chain: MEKDQIQPRVLESVDTNSLSLLSSNTSSNMNSNTNNKLSIIASDISTGSVLSRPLTPPVVQDIENNSMLQWQFEKKEFIFDSNSTPSKQAKPLQRNSPYQGNSQSENQNQQLLNVRKRRSQLIGAKPKIPSKLYQSVSKLDLIDDKSFTSLPIAPPCNIETNEDDSGNNEYNNNKKRPRLNPVNELRVHNNKRNRYVSYGPSLDTKNYELTENTSQDIPPLVLVEDYIPYTQSKSTKKMVSISDLKSKLSKRRDNHIPLRVKNSYSEINK
As to B9, the binding result in experiment [1] was “binds”.

B10: Fir1-N200 (domain or fragment, UniProt P40020 1-200)
chain: MSLPVTPVKSKVCSTLSIQHEMDHDQCRDVLCPRENLLAINRTNNIESVAIPRQRSSKNKKPHEHTQSQVRFSIPDPNEISQDSPLKIVFPKSGNETERRMSTSSLLMNSHGHLVDMHSKILVDVPKEVWKFHHNRRKKCESRHRKTRSDVRSNTSSSGKEPNHSRSKSLQSIIVDTMNTYRATEVETSINENTSNISQV
With B10, the binding entry in experiment [1] is reported as “binds”.

B11: Pdr3 411-976 (two-hybrid library clone) (domain or fragment, UniProt P33200 411-976)
chain: LCYAYYNVTLYHMLDINTLDYLEILVSLLEIQNEIDERFGFEKMLEVAVTCSTKMGLSRWEYYVGIDENTAERRRKIWWKIYSLEKRFLTDLGDLSLINEHQMNCLLPKDFRDMGFINHKEFLTKIGTSSLSPSSPKLKNLSLSRLIEYGELAIAQIVGDFFSETLYNEKFTSLEVSVKPTIIRQKLLEKVFEDIESFRLKLAKIKLHTSRVFQVAHCKYPEYPKNDLIEAAKFVSYHKNTWFSILGAVNNLIARLSEDPEVITEQSMKYANEMFQEWREINQFLIQVDTDFIVWACLDFYELIFFVMASKFYVEDPHITLEDVINTLKVFKRITNIISFFNNNLDEKDYDCQTFREFSRSSSLVAISIRIIFLKYCYAEQIDRAEFIERLKEVEPGLSDLLREFFDTRSFIYRYMLKSVEKSGFHLIIRKMLESDYKFLYRDKLATGNIPDQGNSSQISQLYDSTAPSYNNASASAANSPLKLSSLLNSGEESYTQDASENVPCNLRHQDRSLQQTKRQHSAPSQISANENNIYNLGTLEEFVSSGDLTDLYHTLWNDNTSYPFL
B11: the binding entry in experiment [1] is reported as “binds”.

B12: Acm1 (protein, UniProt Q08981 1-209)
chain: MISPSKKRTILSSKNINQKPRAVVKGNELRSPSKRRSQIDTDYALRRSPIKTIQISKAAQFMLYEETAEERNIAVHRHNEIYNNNNSVSNENNPSQVKENLSPAKICPYERAFLREGGRIALKDLSVDEFKGYIQDPLTDETIPLTLPLGDKKISLPSFITPPRNSKISIFFTSKHQGQNPETKISRSTDDVSEKKVVRKLSFHVYEDE
On to B12, for which the binding entry in experiment [1] is reported as “binds”.

B13: Tos4-N267 (domain or fragment, UniProt Q06266 1-267)
chain: MSSQFPSSPYRTVDPYSPPNYKQQPNCPSSNYEKAGKTASESIGNFGKGDYPTPFPSSSIGRVSSPVRSNKVDAIPSSPAFPGQLAETSPKFSSKLSSPSRHTRVINAELDPSKISTITVGRNSSQCDVALCKNKFISRVHASITYLPQTNEVKIHCFSMNGLIVTYRKQFDCYQLKDTMNNNNRAYRLVPRFSNEKCVKEIQDEGGFINFTLEEGDTVYMTYYKGIMLDFRQVLLRISLKEKNSSSEPLRFEKKAEFESESETKHM
Regarding B13, in experiment [1], the binding entry is “no binding”.

B14: Tos4-C222-mut.5 (domain or fragment, UniProt Q06266 268-489)
chain: GSIRKHPLIFTDTSMDRPKKILKDSNKISIGSDSGVAERMLNHFLNSKSSPLSSVSSVDHEEQTLRQDSLSSDKNPMTMKKPKLNKRVLPSKPKKSVAAALDELSRRNIDVMHLQHILTNHLAFANVQQTPLFQLQQVNSQISELSADEAASIASDAKCVGVIYRHGKDAAGKPLDEEYFYDLENDDDYEARNAVSSLKGGATGARSCRRTHKQYFWKKPAK
As for B14, in experiment [1], the binding result is reported as “binds weakly”.
